Laboratory results as given in patent US20190161525A1 (NATIONAL CHENG KUNG UNIVERSITY, published 2019).
No constants are given. Whether binding was seen depends on the method and setting. Some entries that bind do so weakly or less than the wild type. Where a sequence is shown, tags or fusion partners need not be part of it.

Amino acid sequences for entries named in this document (tags omitted). A change or cut given only in a name is not applied to a line headed by its entry. Chains listed by the source or under a name are the forms on record and can include a tag or linker. Residues count along the entry.
PHF-tau (paired helical filament tau) in human postmortem AD hippocampus (P10636, form named): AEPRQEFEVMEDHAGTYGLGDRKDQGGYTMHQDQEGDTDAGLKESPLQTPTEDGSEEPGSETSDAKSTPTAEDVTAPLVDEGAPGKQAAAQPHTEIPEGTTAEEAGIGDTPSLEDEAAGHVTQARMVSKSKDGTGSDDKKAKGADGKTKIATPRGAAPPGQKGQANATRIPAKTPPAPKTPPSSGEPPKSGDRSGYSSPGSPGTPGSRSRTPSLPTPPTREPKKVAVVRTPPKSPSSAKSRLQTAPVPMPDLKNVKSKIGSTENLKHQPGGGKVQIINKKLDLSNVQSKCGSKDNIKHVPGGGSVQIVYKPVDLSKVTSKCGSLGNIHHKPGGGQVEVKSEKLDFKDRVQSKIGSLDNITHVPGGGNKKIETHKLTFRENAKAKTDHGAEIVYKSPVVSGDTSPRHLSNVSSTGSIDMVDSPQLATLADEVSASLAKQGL
UniProt P05067, residues 672-713: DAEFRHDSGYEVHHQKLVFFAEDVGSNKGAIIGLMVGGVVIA

Columns and labels:
[1] = target: PHF-tau (paired helical filament tau) in human postmortem AD hippocampus (human) (UniProt P10636); assay: antibody FRET microscopy on hippocampal sections of postmortem AD patients
[2] = target: Aβ (amyloid β) in human postmortem AD hippocampus (human) (UniProt P05067); assay: nonreducing SDS-PAGE of postmortem human soluble hippocampal extracts
[3] = target: PHF-tau (paired helical filament tau) in human postmortem AD hippocampus (human) (UniProt P10636); assay: FRET analysis, immunofluorescence on AD hippocampal sections
[4] = target: Aβ (amyloid β) in human postmortem AD hippocampus (human) (UniProt P05067); assay: as above

Measured: binding

B1: Zfra1-31 (full-length zinc finger-like protein that regulates apoptosis, synthetic peptide) (peptide)
peptide: MSSRRSSSCKYCEQDFRAHTQKNAATPFLAN
notes: also called Zfra peptide; full-length Zfra
binds: all assays above
